Data from PubChem BioAssay AID651804 (National Center for Advancing Translational Sciences (NCATS), 2012).
Among all 1,200 compounds or so, about 20 (2%) were called active. Inconclusive results (about 23%) are left out. The call rests on the fitted dose curve; in most records, active means well fitted inhibition curve with a large enough effect; inconclusive means small, poorly fitted or top-dose-only effect; inactive means no such curve, though single readings can be large or run the other way. This is one part of the list.

By UniProt entry, the sequences of proteins in these tests, tags left out. Where a name states a change or a piece, a line headed by the entry shows the natural chain unless it says otherwise.
UniProt P11308: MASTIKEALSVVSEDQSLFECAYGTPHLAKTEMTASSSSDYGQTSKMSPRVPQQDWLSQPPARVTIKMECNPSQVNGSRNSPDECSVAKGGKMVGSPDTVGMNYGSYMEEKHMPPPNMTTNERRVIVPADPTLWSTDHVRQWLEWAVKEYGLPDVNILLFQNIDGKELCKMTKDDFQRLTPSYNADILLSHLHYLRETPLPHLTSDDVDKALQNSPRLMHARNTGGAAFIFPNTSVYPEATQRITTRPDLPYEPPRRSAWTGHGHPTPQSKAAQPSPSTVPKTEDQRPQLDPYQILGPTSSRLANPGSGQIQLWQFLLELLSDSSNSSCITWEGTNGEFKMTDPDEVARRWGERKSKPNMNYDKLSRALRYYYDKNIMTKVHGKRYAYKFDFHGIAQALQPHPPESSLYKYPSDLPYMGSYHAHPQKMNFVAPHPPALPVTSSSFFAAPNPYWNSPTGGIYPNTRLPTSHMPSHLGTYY

Molecular target: Transcriptional regulator ERG (Homo sapiens) (UniProt P11308)
Assay: qHTS for Small Molecule Inhibitors of the ERG Ets/DNA interaction: HTRF assay against cherry picks
Conditions: His-ERG Ets domain with biotin-DNA; series mostly up to 154 µM; activity change, negative = inhibition: at the top concentration
Excerpt: The Ets family of proteins is a family of ~30 conserved transcription factors defined by the presence of an ~85 amino acid domain referred to as the Ets domain, which mediates sequence-specific DNA binding to a core DNA element GGAA/T.The Ets family member ERG has been linked to several neoplasms. […] More extensive studies of the effects of over-expression of ERG in prostate cells have recently been carried out and have shown that over-expression of ERG results in increased invasion. […] We will carry out a high throughout screen to identify inhibitors of the interaction between ERG and DNA using a fluorescence polarization (FP) assay with a His-tagged ERG Ets domain and fluorescently-labeled DNA probes to develop small molecule inhibitors of this interaction as probes to test this hypothesis and lay the groundwork for the development of targeted therapies against ERG. This is the counterscreen against the cherry picks. NIH Molecular Libraries Probe Production Network [MLPCN] NIH Chemical Genomics Center [NCGC] Grant: NS066464 PI Name: John Bushweller, University of Virgina
2 ul of protein solution (200 nM ERG domain in 300mM KCl, 50mM Tris-HCl, 1mM EDTA, 1mM DTT, pH 7.5); 20 nl Control plate and compound library plate; 2 ul of 200 nM biotin-DNA; incubate for 10 min at RT; 1 ul of anti-His antibody conjugated to the long-life fluorescent cryptate donner […] (5ng/ul) and streptavidin conjugated to the acceptor compound […] (0.2 ng/ul) mix; incubate 10 min and measure FRET (Excitation = 320 nm, Emission = 615, 665 nm).

SMILES | activity change, negative = inhibition
COC(=O)c1ccc(NC(=S)N2CCN(C(=O)c3ccco3)CC2)cc1 | inactive: -2.23%
COCCNC(=O)Cn1c(=O)n(CCCC(=O)NCc2ccc3c(c2)OCO3)c(=O)c2sccc21 | inactive: -28.9%
CC(=O)c1cccc(S(=O)(=O)N2CCC(c3nc4ccccc4[nH]3)CC2)c1 | inactive: -27.3%
COc1cc2nc(N3CCN(C(=O)[C@@H]4CCCO4)CC3)nc(N)c2cc1OC | inactive: -25.1%
COc1ccc(C(=O)N2CCCC(CCC(=O)NCc3ccccc3F)C2)c(OC)n1 (stereo not drawn) | inactive: -5.94%
CCOC(=O)c1ccccc1NC(=O)COC(=O)C(Cc1c[nH]c2ccccc12)NC(C)=O (stereo not drawn) | inactive: -32.6%
CCN(CC)c1cccc(OC2=NS(=O)(=O)c3ccccc32)c1 | inactive: -23%
CCCc1nc2oc3c(OC)ncnc3c2c2c1COC(C)(C)C2 | inactive: -0.955%
CCN1CCN(C(=O)C(=O)c2cn(CC(=O)N3CCCCCC3)c3ccccc23)CC1 | inactive: -17.8%
O=C(NCC1CCN(S(=O)(=O)c2ccccc2)CC1)Nc1ccc(F)cc1 | inactive: -20.5%
CC1(C)C[C@@H]1C(=O)N/C(=C\CCCCSC[C@H](N)C(=O)O)C(=O)O | inactive: -9.87%
Cc1ccc(C(=O)N2CCCCC2C(=O)O)cc1S(=O)(=O)N1CCCCC1 (stereo not drawn) | inactive: -26.3%
NC(=O)c1ccccc1NCC(=O)c1ccc(F)cc1 | inactive: -21.6%
Cc1ccc(N(CCCCN2C(=O)c3ccccc3C2=O)C(=O)c2ccc(Cl)s2)cc1 | inactive: -1.7%
COC(=O)/C(=C/Nc1ccc(O)cc1)[N+](=O)[O-] | inactive: -20.5%
Cc1ccccc1OCC(=O)OCC(=O)NCCc1ccccc1 | inactive: 12.7%
CCN(CC(=O)Nc1ccccc1C(F)(F)F)C(=O)c1ccc(N2C(=O)CCC2=O)cc1 | inactive: -29.6%
CN(C)S(=O)(=O)c1ccc(C(=O)N(c2ccccn2)c2ccccn2)cc1 | inactive: -5.2%
COc1ccc(N=c2scc(C)n2CCCN2CCCC2=O)cc1 | inactive: -25.8%
Nc1ccc(C(=O)O)cc1 | inactive: 4.56%
Nc1cc(C(=O)OCC(=O)NCCCc2ccccc2)ccc1Cl | inactive: -7.69%
O=C(Nc1ccc(F)cc1F)NC1CC1 | inactive: -25.6%
O=C(Nc1ccccc1-c1ccccc1)C1CCCCC1 | inactive: -21.9%
Cn1cc2c(=O)n(/N=C/c3ccccc3)cnc2n1 | inactive: -15.9%
COc1c2c(c(CCC(=O)O)c3c1C=CC(C)(C)O3)OC(C)(C)C=C2 | inactive: -24.5%
Cc1ccc(C(=C2C3C=CC2C2C(=O)NC(=O)C32)c2ccc(C)cc2)cc1 (stereo not drawn) | inactive: -22.2%
O=C(Nc1ccc(-n2cnnn2)cc1)C1CCCCC1 | inactive: -24.8%

In the list so far, two have a Cl atom.
SMILES | activity change, negative = inhibition
Cc1ccc(N(CCCCN2C(=O)c3ccccc3C2=O)C(=O)c2ccc(Cl)s2)cc1 | inactive: -1.7%
Nc1cc(C(=O)OCC(=O)NCCCc2ccccc2)ccc1Cl | inactive: -7.69%

Continuation.

SMILES | activity change, negative = inhibition
O=C(NC1CCN(S(=O)(=O)c2ccccc2C(F)(F)F)CC1)c1ccco1 | inactive: -16.3%
CCOCC(=O)N1CCC(Cc2ccccc2)CC1 | inactive: -7.11%
CCOC(=O)C1=C(C)c2ccccc2N(S(=O)(=O)C(F)(F)F)C1C(=O)OCC (stereo not drawn) | inactive: -0.53%
COc1ccc(C2CC(=O)C(C=NCCN3CCN(C(=S)Nc4ccccc4)CC3)=C(O)C2)cc1 (stereo not drawn) | inactive: -9.92%
O=C(COC(=O)/C=C/c1ccc([N+](=O)[O-])cc1)NCc1cccs1 | inactive: -28.9%
COc1ccc(CC(=O)OCC(=O)Nc2cccnc2Cl)cc1OC | inactive: 6.58%
Oc1c(Cl)cc(Oc2cc(Cl)c(O)c(CN3CCOCC3)c2)cc1CN1CCOCC1 | inactive: -24.7%
COc1ccc(-n2cnc3cc(C(=O)NC4CCCC4)ccc32)cc1 | inactive: -14.5%
Nc1nnc(-c2ccccc2F)s1 | inactive: -31.9%
Cc1cccc(C(=O)Nc2ccc(C(=O)N3CCCCC3C)cc2)c1 (stereo not drawn) | inactive: -26.7%
CCOC(=O)C(NC(=O)CC(C)C)(Nc1sc2c(c1C(N)=O)CCCC2)C(F)(F)F (stereo not drawn) | inactive: -21.5%
CC(=O)c1ccc(OCc2ccc(Oc3c(Cl)cccc3[N+](=O)[O-])cc2)cc1 | inactive: -23.2%
CCOC(=O)c1c(C)n(CCOc2ccccc2)c2ccc(O)cc12 | inactive: -27.4%
CCc1ccccc1NC(=O)c1nnn(-c2ccc(F)cc2)c1C | inactive: -7.69%
CCCCOc1ccc(C(=O)NCCC(=O)NCCCC(=O)OCC)cc1 | inactive: 4.35%
Cc1ccc(N(CC(=O)NCc2ccccc2)C(=O)CCC(=O)Nc2nccs2)cc1 | inactive: -6.9%
Cc1ccc2oc(-c3ccc(NC(=O)CC(C)C)cc3)nc2c1 | inactive: -28%
COC(=O)CSc1nnc(CNC(=O)c2ccc(S(=O)(=O)N3CCOCC3)cc2)n1C | inactive: -23.6%
Cc1ccc(NC(=O)CSc2nc3ccccc3c3nc(CCn4c(C)nc5ccccc54)nn23)cc1F | inactive: -14.4%
CCOC(=O)C1CN(S(=O)(=O)c2cc(OC)ccc2OC)C1 | inactive: -25.9%
CC1Cc2ccccc2N1CC(=O)Nc1ccc2c(c1)OCO2 (stereo not drawn) | inactive: -23.4%
CC(C)CN1CCc2nc(Nc3ccc(F)cc3F)ncc2C1 | inactive: -26%
COc1cc(NC(=O)c2noc(C)c2[N+](=O)[O-])c(OC)cc1Cl | inactive: -37.2%
Cc1cc(C)c(NC(=O)Cn2c(=O)n(CCC(=O)N3CCc4ccccc4C3)c(=O)c3ccccc32)c(C)c1 | inactive: -12.5%
CCOc1ccc(N(CC(=O)NCCc2ccc(Cl)cc2)S(=O)(=O)c2c(C)[nH]c(=O)[nH]c2=O)cc1 | inactive: -19%
CCOC(=O)c1c(NC(=O)CN2C(=O)NC3(CCC(C)CC3)C2=O)sc(C)c1-c1ccc(C)cc1 (stereo not drawn) | inactive: -10.5%
